Results are given in words; binding and its absence hold for the method and conditions named. Binding seen in cells or lysates may run through a third protein. For some assays here: Binding can be weak; no strength is given.
What was measured:
[1] = molecular target: T1, tetraspanin CD151 (human (endogenous in HCCLM3)) (UniProt P48509); experiment: co-IP; HCCLM3 lysate; CD151 immunoprecipitated with an anti-CD151 antibody purchased from Abcam (a different epitope of CD151); integrin α6 detected by Western blotting
T1 sequence: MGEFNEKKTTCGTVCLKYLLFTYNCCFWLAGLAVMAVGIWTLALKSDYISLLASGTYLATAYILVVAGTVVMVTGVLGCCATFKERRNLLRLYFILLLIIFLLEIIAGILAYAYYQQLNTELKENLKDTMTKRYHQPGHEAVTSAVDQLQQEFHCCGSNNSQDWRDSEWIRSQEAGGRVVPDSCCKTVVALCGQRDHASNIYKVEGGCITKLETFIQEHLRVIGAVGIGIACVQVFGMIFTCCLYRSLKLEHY

[2] = molecular target: T1, tetraspanin CD151 (human (endogenous in HCCLM3)); experiment: condition: only CD151 immunoprecipitated with CD151 mAb 9B, an antibody against the CD151/integrin α6β1 binding site; co-IP; HCCLM3 lysate (250 mg); CD151 immunoprecipitated with CD151 mAb 9B (five milligrams), raised against the CD151/integrin α6β1 binding site; integrin α6 probed by Western blotting

With “integrin α6 (human (endogenous in HCCLM3))” as the substance, how does the binding [1] read?
The binding was “binds”.

And the binding [2]?
The binding was “no binding”.

— publication PMC4868758
